This is an account of results in PMC10214260.

The chains behind the UniProt entries cited, without tags or fusion partners.
UniProt P30536: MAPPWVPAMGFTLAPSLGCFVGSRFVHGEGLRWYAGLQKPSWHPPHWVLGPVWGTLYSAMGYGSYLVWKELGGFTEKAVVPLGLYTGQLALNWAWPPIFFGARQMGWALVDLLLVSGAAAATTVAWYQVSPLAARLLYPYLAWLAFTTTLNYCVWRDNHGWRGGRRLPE

These are yes or no findings as the source states them, for the method shown. In cells and extracts the contact can be indirect. Here binding means that the protein was enriched with, or labelled near, the bait; the list need not be complete.

The test deals with translocator protein (TSPO), 18 kDa, mitochondrial (human (endogenous in HCCLM3 and MHCC97H)) (UniProt P30536). The test is described as follows: affinity purification with mass spectrometry; IP with TSPO antibody in HCCLM3 and MHCC97H cells, silver staining, mass spectrometry.

Consider P62 (from UniProt Q13501 1-440), for which the binding result was “binds”.
